Results reported in article PMC5609986.
Results are given in words; binding and its absence hold for the method and conditions named. Binding seen in cells or lysates may run through a third protein. Some entries that bind do so weakly or less than the wild type.

The chains behind the UniProt entries cited, without tags or fusion partners.
UniProt Q9P0L2: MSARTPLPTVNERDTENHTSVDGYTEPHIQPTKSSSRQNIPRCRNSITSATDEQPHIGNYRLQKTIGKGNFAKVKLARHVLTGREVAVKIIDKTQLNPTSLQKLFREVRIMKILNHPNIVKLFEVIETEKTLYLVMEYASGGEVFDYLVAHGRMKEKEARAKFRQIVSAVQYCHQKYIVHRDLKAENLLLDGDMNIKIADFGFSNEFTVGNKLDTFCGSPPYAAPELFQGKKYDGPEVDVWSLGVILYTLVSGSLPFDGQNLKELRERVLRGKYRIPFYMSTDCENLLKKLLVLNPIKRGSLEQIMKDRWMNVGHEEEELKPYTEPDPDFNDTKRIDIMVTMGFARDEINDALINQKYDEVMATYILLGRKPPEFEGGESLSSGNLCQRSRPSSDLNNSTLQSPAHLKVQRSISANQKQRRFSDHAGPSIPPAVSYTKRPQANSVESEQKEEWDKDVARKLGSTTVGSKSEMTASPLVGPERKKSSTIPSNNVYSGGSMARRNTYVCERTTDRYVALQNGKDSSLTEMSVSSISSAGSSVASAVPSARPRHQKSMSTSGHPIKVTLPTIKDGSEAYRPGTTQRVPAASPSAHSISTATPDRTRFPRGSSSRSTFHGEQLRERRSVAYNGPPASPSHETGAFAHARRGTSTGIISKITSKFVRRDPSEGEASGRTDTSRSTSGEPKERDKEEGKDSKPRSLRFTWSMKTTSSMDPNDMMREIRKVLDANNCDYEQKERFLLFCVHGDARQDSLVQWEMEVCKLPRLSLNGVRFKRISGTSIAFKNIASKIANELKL

Target: T1, USP21 deubiquitylating enzyme (human (endogenous in HEK293T)) (UniProt Q9UK80)
T1 sequence: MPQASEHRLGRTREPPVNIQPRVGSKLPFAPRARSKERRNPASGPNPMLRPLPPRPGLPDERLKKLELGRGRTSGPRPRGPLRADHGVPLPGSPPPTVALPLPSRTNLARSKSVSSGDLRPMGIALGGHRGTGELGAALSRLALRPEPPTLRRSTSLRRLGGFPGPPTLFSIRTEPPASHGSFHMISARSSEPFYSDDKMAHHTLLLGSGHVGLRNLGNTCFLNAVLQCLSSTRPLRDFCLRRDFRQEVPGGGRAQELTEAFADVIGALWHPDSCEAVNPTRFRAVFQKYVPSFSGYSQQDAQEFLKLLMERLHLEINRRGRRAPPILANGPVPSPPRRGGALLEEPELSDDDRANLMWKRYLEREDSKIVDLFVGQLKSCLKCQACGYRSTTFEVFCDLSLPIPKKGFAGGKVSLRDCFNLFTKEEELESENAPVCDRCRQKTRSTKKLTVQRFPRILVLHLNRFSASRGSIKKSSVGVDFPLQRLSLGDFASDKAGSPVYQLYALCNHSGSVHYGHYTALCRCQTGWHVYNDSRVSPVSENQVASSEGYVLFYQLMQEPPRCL
Test: co-IP; endogenous proteins; HEK293T cells pretreated overnight with 5 uM MG132; lysed in PLC buffer (50 mM Hepes pH 7.5, 150 mM NaCl, 5 % glycerol, 0.5 % Triton X-100, 1.5 mM MgCl2, 1 mM EGTA, RNAase A, DTT, Na3VO4); antibodies against USP21, MARK1 or isotype control on protein A/G agarose, overnight at 4°C; Western blot

binding: binds
Substance: Microtubule affinity-regulating kinase 1 (MARK1) (from UniProt Q9P0L2 1-795) (enzyme)
